Drawing on PMC7819943, “Rice protein-binding microarrays: a tool to detect cis-acting elements near promoter regions in rice”, this text covers binding signal for 42 sequences.

This is one part of the list.

This test addresses T1, OsSMF1 (Oryza sativa, UniProt Q6ZLB0 1-436).
T1 sequence: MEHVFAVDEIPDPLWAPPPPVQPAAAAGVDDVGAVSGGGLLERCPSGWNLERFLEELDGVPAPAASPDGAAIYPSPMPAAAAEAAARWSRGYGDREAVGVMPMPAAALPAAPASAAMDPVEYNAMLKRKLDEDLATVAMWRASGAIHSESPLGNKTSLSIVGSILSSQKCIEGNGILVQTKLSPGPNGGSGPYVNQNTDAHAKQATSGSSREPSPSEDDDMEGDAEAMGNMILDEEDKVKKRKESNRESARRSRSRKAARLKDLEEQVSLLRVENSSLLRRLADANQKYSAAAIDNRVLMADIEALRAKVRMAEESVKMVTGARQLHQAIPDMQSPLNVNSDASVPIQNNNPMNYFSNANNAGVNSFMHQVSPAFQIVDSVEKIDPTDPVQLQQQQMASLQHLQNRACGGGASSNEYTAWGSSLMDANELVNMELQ
The test can be described thus: protein-binding microarray (RPBM); PBS, 2% BSA, 51.3 ng/ul salmon testes DNA, 50 uM zinc acetate, 200 nM TF, 25 C, 1 h; high values mean tight binding. The following applies: protein: recombinant; tags: N-terminal polyhistidine and DsRed monomer fusion (pET32a); chain copies: 2; label: CyDye5-dUTP incorporated in the synthesized complementary strand; 3' TTTTT single-stranded linker to array surface; dsDNA, one strand shown. The procedure, abridged: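 Polyhistidine-tagged DsRed fusions of transcription factors, joined at the N-terminus, were expressed in E. coli BL21-CodonPlus and isolated on Ni–NTA. They were incubated at 200 nM for 1 h at 25 °C on a custom Agilent array, double-stranded and BSA-blocked, in PBS with 2% BSA, salmon testes DNA and 50 µM zinc acetate. The binding signal is per-feature fluorescence intensity (arbitrary units) read on an Axon 4000B scanner after washing.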
Regarding “AGGGGTGAAAGGTTTTGGCGTGTCACATTGGATATACGGGCGGAGTCACCTAGTGCAG”, the binding signal is 4170 fluorescence intensity (a.u.). On to “ACAATGTCCTTGTGCAATCTATATCGGTCATGACGTCGTGCGGAGTCACCTAGTGCAG”, for which the binding signal was 4600 fluorescence intensity (a.u.). Under “TCACGGATTAGATTCGTGTCACTTAAAATATCTTGTTTTGCGGAGTCACCTAGTGCAG” stands 3580 fluorescence intensity (a.u.). As for “GGATGTTCGTGTATGCATGGCTAGATCAGGTTGTTAGCTTCGGAGTCACCTAGTGCAG”, the figure is 3530 fluorescence intensity (a.u.); as for “GATGTTACGCGTGTAATGGTGTGTGCGTGTATATACTTTGCGGAGTCACCTAGTGCAG”, 7330 fluorescence intensity (a.u.); as for “AATTTTATAACTCATCTGAAAACCGCGAGACGAATTTAAGCGGAGTCACCTAGTGCAG”, 12300 fluorescence intensity (a.u.).

Take “GGTCGGTCGGTCGCGTCGCTCGGGCTTGGCTTGTTTGCGTCGGAGTCACCTAGTGCAG”: the binding signal was 23000 fluorescence intensity (a.u.).

For “TGCTCATATGGGTAGGTGTACACACGTGTTGTGATAGTGTCGGAGTCACCTAGTGCAG”, the binding signal is 3840 fluorescence intensity (a.u.). For “ATCAAACATATCCTACATGTATTCATTCATAGCATGACGTCGGAGTCACCTAGTGCAG”, the binding signal is 12000 fluorescence intensity (a.u.). For the sequence “CTGGGGCTACGCCGTCGCCACGACATTGCTGAGCTACGTCCGGAGTCACCTAGTGCAG”, the binding signal is 5540 fluorescence intensity (a.u.). In the case of “TCGTCGTGGTAGACGTACGCGAACCCGCCGTGCCGTGTCACGGAGTCACCTAGTGCAG”, the binding signal was 4520 fluorescence intensity (a.u.). On to “GGCTGCCGGTGAAGGGGCTGCGTCAGATGGCGGCACCACGCGGAGTCACCTAGTGCAG”, for which the binding signal was 3630 fluorescence intensity (a.u.). Under “CTACAGCAACAGCATCTAGTATATACGGCCACGTCCACCTCGGAGTCACCTAGTGCAG” stands 5450 fluorescence intensity (a.u.); under “GGTTGGAATATTCTAGTTGCATGGCGTCATTTCAGAATGTCGGAGTCACCTAGTGCAG”, 4890 fluorescence intensity (a.u.).

In the case of “ATAAATATATATCATACATATACATATGTGTATATATACGCGGAGTCACCTAGTGCAG”, the binding signal is 26200 fluorescence intensity (a.u.). With “TCGTCCGATCCCCTAGCGTGGCCACCGATCCGCCCGTCCCCGGAGTCACCTAGTGCAG”, the binding signal was 3230 fluorescence intensity (a.u.). As for “ATCCAAATTAATTGTTTTAAAATAGTTTTAAGAAGGATCTCGGAGTCACCTAGTGCAG”, the figure is 3430 fluorescence intensity (a.u.); as for “GCATCCAGAAAGAGCCACGTCATCCAAATAATCCTAACCGCGGAGTCACCTAGTGCAG”, 17900 fluorescence intensity (a.u.).

With “ATGATCTTTAATTATGTTCTGCGGTAGAGATGACAAACTTCGGAGTCACCTAGTGCAG”, the binding signal was 3760 fluorescence intensity (a.u.). Regarding “AGCGCGCGGCGGGCGCGCCCCACCGGCCTCCTCCCCTCCTCGGAGTCACCTAGTGCAG”, the binding signal was 13000 fluorescence intensity (a.u.). Under “GTTAAAACTATATGATTGTGTGAGTCAGCGCACTTTGCACCGGAGTCACCTAGTGCAG” stands 8260 fluorescence intensity (a.u.); under “AGAGTGTAAATTACACTAGGATGACACATACTCCCTCCGTCGGAGTCACCTAGTGCAG”, 3340 fluorescence intensity (a.u.). As for “TTGTAAGTCAGGCAGAGTAGATGATGCAATGCTTAATTTGCGGAGTCACCTAGTGCAG”, the figure is 3220 fluorescence intensity (a.u.); as for “CTGGAGGGAAAGGTCGGGCCCACGTAAGGGAACAAAACCACGGAGTCACCTAGTGCAG”, 3480 fluorescence intensity (a.u.). As for “GTAATACTGCTGGTGCAGTAGCAGACGCTGACACGTGGGTCGGAGTCACCTAGTGCAG”, the figure is 8980 fluorescence intensity (a.u.). Regarding “CCCCTCCGCTAGTAATCACCGACTCTCCCCATTGTGTCACCGGAGTCACCTAGTGCAG”, the binding signal was 3900 fluorescence intensity (a.u.). As for “GCGGGCGAGCCGTAGAGGATTAAAATGGTAAAGCCGCTAACGGAGTCACCTAGTGCAG”, the figure is 3490 fluorescence intensity (a.u.). As for “GAACACGATCAACTCGATCCATCTCTCTCTAGATCAGCTGCGGAGTCACCTAGTGCAG”, the figure is 3560 fluorescence intensity (a.u.). Under “GTTCCCAACCTCTGCCTCTCATGACTCATTTTCTGCGCGCCGGAGTCACCTAGTGCAG” stands 8180 fluorescence intensity (a.u.); under “CTGCCCTGAGCCCGCGCGCCGCCACCAGGGAGCCGCCGTCCGGAGTCACCTAGTGCAG”, 3640 fluorescence intensity (a.u.); under “CTTAATACTGACACTGGATGCGTGTCAAATTGGAGTTCCACGGAGTCACCTAGTGCAG”, 3140 fluorescence intensity (a.u.). In the case of “AGAATTGTCTGTAGCTGCTTATGTGTACATCTAGCAAGCCCGGAGTCACCTAGTGCAG”, the binding signal is 8340 fluorescence intensity (a.u.).

Take “GCCCGTCCGTGCAGCAGCCTCGAGCGGCCGTGTCGTGCAGCGGAGTCACCTAGTGCAG”: the binding signal was 28000 fluorescence intensity (a.u.). Under “GATCTAGGGAACCTCCCTTAACCAACGGCCGATGACACGACGGAGTCACCTAGTGCAG” stands 4380 fluorescence intensity (a.u.); under “CCTTAAATTTTCCTAAATCCTTACCTACCGTCATTCTCTCCGGAGTCACCTAGTGCAG”, 47400 fluorescence intensity (a.u.). Consider “ACCAGGAGACATGGAGGTAAGTATCTATGTACCTCTGTGTCGGAGTCACCTAGTGCAG”, for which the binding signal was 28300 fluorescence intensity (a.u.). In the case of “GTGGACACGTACTACACCGTGGTCCTCGACTCCGTCAAGGCGGAGTCACCTAGTGCAG”, the binding signal was 4220 fluorescence intensity (a.u.). Turning to “AATTCCCTGATGGCTCCCTGAAATTCCTCTGTTACAATTTCGGAGTCACCTAGTGCAG”, the binding signal is 28800 fluorescence intensity (a.u.).

Consider “GACAATCCAGTTGTCAAGTACAGCTATGCCTTACCATCAGCGGAGTCACCTAGTGCAG”, for which the binding signal is 4420 fluorescence intensity (a.u.). As for “AGAGGGGACTGGGGAGGGGAGGGGCGGCGCTCGCTGGCTTCGGAGTCACCTAGTGCAG”, the figure is 8090 fluorescence intensity (a.u.). Consider “AGGGTGCCGGAGCTGCTGCTGTCGGTGGTGCCATCCTCCTCGGAGTCACCTAGTGCAG”, for which the binding signal was 5480 fluorescence intensity (a.u.).

For the sequence “ATTCTTTTGTCAAAGTGGAATAATGGCATACCGTAGTATTCGGAGTCACCTAGTGCAG”, the binding signal is 3910 fluorescence intensity (a.u.).
